Our source for the binding values is paper PMC5652740, “Inhibition of HIV-1 infection in humanized mice and metabolic stability of protein phosphatase-1-targeting small molecule 1E7-03” (Oncotarget, 2017).

Protein sequences, listed by entry. Tags and fused reporters are not part of them. Residues count along the entry.
UniProt P62136, residues 7-300: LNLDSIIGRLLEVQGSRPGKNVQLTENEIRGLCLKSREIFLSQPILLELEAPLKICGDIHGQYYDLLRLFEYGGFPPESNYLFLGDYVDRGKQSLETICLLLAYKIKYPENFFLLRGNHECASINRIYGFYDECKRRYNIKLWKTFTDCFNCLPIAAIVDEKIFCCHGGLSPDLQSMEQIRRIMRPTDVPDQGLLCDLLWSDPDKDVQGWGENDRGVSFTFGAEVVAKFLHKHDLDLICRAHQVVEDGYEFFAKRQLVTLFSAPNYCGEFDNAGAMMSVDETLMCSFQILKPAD

This assay deals with human PP1α (residues 7–300) (human) (UniProt P62136). Description: SPR; PP1 immobilised on a CM5 chip by amine coupling (about 3160 RU); Biacore T200, 25°C; running buffer 0.01 M HEPES pH 7.4, […] NaCl, 0.005% Surfactant P20, 1% DMSO, 2 mM MnCl2; 1:1 binding model; both purified. In general terms: Surface plasmon resonance follows binding to a sensor surface in real time, without labels.

Results are given in words; binding and its absence hold for the method and conditions named.

Consider “mutant pRb-Tat peptide with QACA mutation in the RVxF motif (from UniProt P04608 28-41)”, for which the binding result is recorded as “no binding”.
